# According to the supplement of paper PMC8728848:
# The list shows a part of the results.
# B1: SJCP3842 (Schistosoma japonicum) (protein)
# chain: MFKMRIINLVNISTVLLLINLLQTKSRLVGKENGFMLTVSIYGAQLSDKMTSVPVSWTIDYEDPEKSAFKKLVTDSCDTFSEYVKSQIPKGSVDGQCTSHIFQRPGSGSGVSISLTLSFIYVDVTQPDTVALKTELEKHFANFVTIHSHKITQAQFRINQKAIVIPTGDKDAIDGSKWKIIAIIALVALAIVVIGGFIYICVK
# How the values were obtained:
# Experiment in all cases: glycan array binding signal (z-score within array); higher = stronger binding
# Conditions in all cases: glycan notation: IUPAC condensed, linker removed
# [1] = biological target: Fuc(a1-2)Gal(b1-4)GlcNAc(b1-3)Gal(b1-4)GlcNAc(b1-3)Gal(b1-4)GlcNAc
# Method in brief: (§1)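 From the Consortium for Functional Glycomics database, 3228 arrays were curated, keeping only those whose protein sequence was available. Binding is given as a within-array Z-score averaged across arrays sharing a protein sequence and across linkers. Negative Z-scores can be read as non-binding.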
# [2] = biological target: Fuc(a1-2)Gal(b1-4)GlcNAc(b1-3)GalNAc
# Method in brief: as §1
# [3] = biological target: Fuc(a1-2)Gal(b1-4)GlcNAc(b1-3)[Fuc(a1-2)Gal(b1-4)GlcNAc(b1-6)]GalNAc
# Method in brief: as §1
# [4] = biological target: Fuc(a1-2)Gal(b1-4)GlcNAc(b1-3)[Fuc(a1-3)[Gal(b1-4)]GlcNAc(b1-6)]Gal(b1-4)Glc
# Method in brief: as §1
# [5] = biological target: Fuc(a1-2)Gal(b1-4)GlcNAc(b1-6)GalNAc
# Method in brief: as §1
# [6] = biological target: Fuc(a1-2)Gal(b1-4)GlcNAc6S
# Method in brief: as §1
# [7] = biological target: Fuc(a1-2)Gal(b1-4)[Fuc(a1-3)]GlcNAc
# Method in brief: as §1
# [8] = biological target: Fuc(a1-2)Gal(b1-4)[Fuc(a1-3)]GlcNAc(b1-2)Man(a1-3)[Fuc(a1-2)Gal(b1-4)[Fuc(a1-3)]GlcNAc(b1-2)Man(a1-6)]Man(b1-4)GlcNAc(b1-4)[Fuc(a1-6)]GlcNAc
# Method in brief: as §1
# [9] = biological target: Fuc(a1-2)Gal(b1-4)[Fuc(a1-3)]GlcNAc(b1-2)[Fuc(a1-2)Gal(b1-4)[Fuc(a1-3)]GlcNAc(b1-4)]Man(a1-3)[Fuc(a1-2)Gal(b1-4)[Fuc(a1-3)]GlcNAc(b1-2)Man(a1-6)]Man(b1-4)GlcNAc(b1-4)GlcNAc
# Method in brief: as §1
# [10] = biological target: Fuc(a1-2)Gal(b1-4)[Fuc(a1-3)]GlcNAc(b1-3)Gal(b1-4)[Fuc(a1-3)]GlcNAc
# Method in brief: as §1
# [11] = biological target: Fuc(a1-2)Gal(b1-4)[Fuc(a1-3)]GlcNAc(b1-3)Gal(b1-4)[Fuc(a1-3)]GlcNAc(b1-3)Gal(b1-4)[Fuc(a1-3)]GlcNAc
# Method in brief: as §1
# [12] = biological target: Fuc(a1-2)Gal(b1-4)[Fuc(a1-3)]GlcNAc(b1-3)GalNAc
# Method in brief: as §1
# [13] = biological target: Fuc(a1-2)Gal(b1-4)[Fuc(a1-3)]GlcNAc(b1-3)[Neu5Ac(a2-6)Gal(b1-4)GlcNAc(b1-6)]Gal(b1-4)Glc
# Method in brief: as §1
# [14] = biological target: Fuc(a1-2)Gal3S(b1-4)GlcNAc
# Method in brief: as §1
# [15] = biological target: Fuc(a1-2)Gal6S(b1-3)GlcNAc
# Method in brief: as §1
# [16] = biological target: Fuc(a1-2)Gal6S(b1-3)GlcNAc6S
# Method in brief: as §1
# [17] = biological target: Fuc(a1-2)Gal6S(b1-4)Glc
# Method in brief: as §1
# [18] = biological target: Fuc(a1-2)Gal6S(b1-4)Glc6S
# Method in brief: as §1
# [19] = biological target: Fuc(a1-2)[Gal(a1-3)]Gal
# Method in brief: as §1
# [20] = biological target: Fuc(a1-2)[Gal(a1-3)]Gal(b1-3)GalNAc
# Method in brief: as §1
# [21] = biological target: Fuc(a1-2)[Gal(a1-3)]Gal(b1-3)GalNAc(b1-3)Gal(a1-4)Gal(b1-4)Glc
# Method in brief: as §1
# [22] = biological target: Fuc(a1-2)[Gal(a1-3)]Gal(b1-3)GlcNAc
# Method in brief: as §1
# [23] = biological target: Fuc(a1-2)[Gal(a1-3)]Gal(b1-3)GlcNAc(b1-2)Man(a1-3)[Fuc(a1-2)[Gal(a1-3)]Gal(b1-3)GlcNAc(b1-2)Man(a1-6)]Man(b1-4)GlcNAc(b1-4)GlcNAc
# Method in brief: as §1
# [24] = biological target: Fuc(a1-2)[Gal(a1-3)]Gal(b1-3)GlcNAc(b1-2)Man(a1-3)[Fuc(a1-2)[Gal(a1-3)]Gal(b1-3)GlcNAc(b1-2)Man(a1-6)]Man(b1-4)GlcNAc(b1-4)[Fuc(a1-6)]GlcNAc
# Method in brief: as §1
# [25] = biological target: Fuc(a1-2)[Gal(a1-3)]Gal(b1-3)GlcNAc(b1-3)GalNAc
# Method in brief: as §1
# [26] = biological target: Fuc(a1-2)[Gal(a1-3)]Gal(b1-3)GlcNAc(b1-6)GalNAc
# Method in brief: as §1
# [27] = biological target: Fuc(a1-2)[Gal(a1-3)]Gal(b1-4)Glc
# Method in brief: as §1
# [28] = biological target: Fuc(a1-2)[Gal(a1-3)]Gal(b1-4)GlcNAc
# Method in brief: as §1
# [29] = biological target: Fuc(a1-2)[Gal(a1-3)]Gal(b1-4)GlcNAc(b1-2)Man
# Method in brief: as §1
# [30] = biological target: Fuc(a1-2)[Gal(a1-3)]Gal(b1-4)GlcNAc(b1-2)Man(a1-3)[Fuc(a1-2)[Gal(a1-3)]Gal(b1-4)GlcNAc(b1-2)Man(a1-6)]Man(b1-4)GlcNAc(b1-4)GlcNAc
# Method in brief: as §1
binder,measurement,setting,value
B1,glycan array binding signal (z-score),[1],-0.904
same,glycan array binding signal (z-score),[2],0.531
same,glycan array binding signal (z-score),[3],-0.481
same,glycan array binding signal (z-score),[4],-1.15
same,glycan array binding signal (z-score),[5],-1.66
same,glycan array binding signal (z-score),[6],-0.827
same,glycan array binding signal (z-score),[7],-0.703
same,glycan array binding signal (z-score),[8],-0.007
same,glycan array binding signal (z-score),[9],1.85
same,glycan array binding signal (z-score),[10],0.164
same,glycan array binding signal (z-score),[11],1.7
same,glycan array binding signal (z-score),[12],-0.71
same,glycan array binding signal (z-score),[13],-0.155
same,glycan array binding signal (z-score),[14],-0.63
same,glycan array binding signal (z-score),[15],-1.52
same,glycan array binding signal (z-score),[16],0.201
same,glycan array binding signal (z-score),[17],1.84
same,glycan array binding signal (z-score),[18],1.73
same,glycan array binding signal (z-score),[19],0.157
same,glycan array binding signal (z-score),[20],0.105
same,glycan array binding signal (z-score),[21],-1.73
same,glycan array binding signal (z-score),[22],-0.034
same,glycan array binding signal (z-score),[23],0.96
same,glycan array binding signal (z-score),[24],0.193
same,glycan array binding signal (z-score),[25],0.478
same,glycan array binding signal (z-score),[26],-1.2
same,glycan array binding signal (z-score),[27],1.07
same,glycan array binding signal (z-score),[28],-1.13
same,glycan array binding signal (z-score),[29],-1.05
same,glycan array binding signal (z-score),[30],0.46

# Rewritten as tab-separated lines: entries from further up
binder	measurement	setting	value
B1	glycan array binding signal (z-score)	[12]	-0.71
same	glycan array binding signal (z-score)	[13]	-0.155
